For some of these results: Negatives hold for the conditions tested. For some of these results: Protein sequences can lack the tags named with them. For some of these results: The exact form of at least one protein or probe is not confirmed.

The results in this text go back to PMC4625125.

Common to all, as to assay: EMSA
For orientation: Mobility shift assays separate free from complexed probe on a gel.

The target in series [1] is T1, CprB (Streptomyces coelicolor M145) (UniProt Q7AKF2).
T1 sequence (looked up, limits assumed): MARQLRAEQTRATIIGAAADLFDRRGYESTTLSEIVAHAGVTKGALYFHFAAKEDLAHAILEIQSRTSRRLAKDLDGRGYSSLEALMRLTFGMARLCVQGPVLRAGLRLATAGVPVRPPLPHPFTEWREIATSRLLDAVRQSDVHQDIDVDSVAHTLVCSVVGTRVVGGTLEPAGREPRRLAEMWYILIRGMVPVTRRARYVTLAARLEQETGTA
To be noted: 0-1 uM protein, 6.6 ng probe; not stated; modified EMSA as previously described (ref 23); recombinant protein; protein details: C-terminal His6 (pET23b, from primers); probe letters rebuilt from the primers and the genome.

The target in series [2] is T2, CprA (Streptomyces coelicolor M145) (UniProt Q7AKE7).
T2 sequence (looked up): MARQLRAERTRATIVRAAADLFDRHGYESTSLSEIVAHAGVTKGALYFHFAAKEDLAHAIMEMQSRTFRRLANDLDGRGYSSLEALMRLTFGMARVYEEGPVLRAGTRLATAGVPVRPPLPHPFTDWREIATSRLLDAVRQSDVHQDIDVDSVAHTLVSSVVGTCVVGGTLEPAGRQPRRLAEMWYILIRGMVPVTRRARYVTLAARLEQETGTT
The conditions noted are these: 0-0.3 uM protein, 6.6 ng probe; not stated; modified EMSA as previously described (ref 23); recombinant protein; residues 1-215; protein details: C-terminal His6 (pET23b, from primers); probe letters rebuilt from the primers and the genome.

For series [3], the target named is AvaR1 (Streptomyces avermitilis) (UniProt Q82H41). The conditions noted are these: 6 ng probe; not stated; modified EMSA as previously described (ref 23); recombinant protein; residues 1-234; protein details: C-terminal His6 (pET23b, from primers); probe letters rebuilt from the primers and the genome.
The target of series [4] is T3, AvaR3 (Streptomyces avermitilis) (UniProt Q82H43).
T3 sequence (looked up): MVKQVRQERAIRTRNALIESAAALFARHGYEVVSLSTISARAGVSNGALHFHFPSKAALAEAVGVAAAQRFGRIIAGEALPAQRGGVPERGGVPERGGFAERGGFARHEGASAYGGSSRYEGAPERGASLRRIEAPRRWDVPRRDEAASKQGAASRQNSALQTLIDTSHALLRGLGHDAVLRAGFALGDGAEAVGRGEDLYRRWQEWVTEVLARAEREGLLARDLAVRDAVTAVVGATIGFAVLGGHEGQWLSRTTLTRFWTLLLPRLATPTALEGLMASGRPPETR
To be noted: no binding even at high concentration; not stated; modified EMSA as previously described (ref 23); recombinant protein; residues 1-287; protein details: C-terminal His6 (pET23b, from primers); probe letters rebuilt from the primers and the genome.

Turning to “GCGGGATCCTGAGGATCTCCGTGATCGTGGCAGCTTGGTAGCCCTGCTTCTCGAAGACCTGCGCCGCGGCGTCCAGGATCGTCTGCCGCGTGCGGATCGCCCGGTCCTGCTTGGCCATGCCTGCCTCCTTGTTCATGTCTCCCCCGGGAAGGATAGAAAAAAAACCGCTCAGTCTGTATCTTAACGTTCGCGCATACAGAACAGCTCGGCATCACATGATTCCTGGGGGGGACCCATGCCCGAAGCAGTAGTTTTGATCAATTCTGCGTCCGATGCCAACTCGATCGAACAAACCGCATTGCCGGTTCCGATGGCGCTTGTCCACCGGACCAGGGTGCATAAGTAGCTGA (double strand) [PscbA]”, the binding result in series [1] and in series [2] was “binds” throughout.
With “CGAGCTTCTCCCTGGCTTGGGACGGGCTGACGTGAACCACGGGACCCGAGAAGGGCTGAGGAAGGGCTGGAGAGCTGCGGAAGAGCTGCGGAGGAGCTGCGGAAGAGCTGCGGAAGAGCTGGAGGTCAAAGATACGTACTAGACGGTTTTGTCTTCAAGTCCCTCTTGCGGTCAAGGGTCATCCCTTACAAGGGAGTTGGGGGTGAGATATGTGTTTTTGAGTGGTTTGTGAGAGGGCGAGGGGAGCATTGAAAAACCGTTCAGCTGGTTTTATCGTCCCGGTCAGGACCGGGCCTGTCTTCGGCGGTGGAGTGGAGGATCGTCGCTGTTAGGGTGCGAACCGCTTGGTCTTTTCCCGCTGGTCGGGACGGTGTCCCGCGATCCGGACGGTGTCCCACTGGTCGGGACGGTGTCCCGCTGGTCGGGCTGGTGCGGAGGGTGCGGATCCCGC (double strand) [Paco]”, the figures for the binding result in series [3] and in series [4] were “binds” and “no binding”, respectively.
